No constants are given. Whether binding was seen depends on the method and setting. Binding seen in cells or lysates may run through a third protein. Some binding calls cover weakened binding; strength is not graded here.
Assays:
[1] = biological target: cyan fluorescent protein (CFP)-CAMK1D (UniProt Q8IU85); experiment: FRET or BRET; HEK293T cells co-transfected with CFP and YFP fusions, fixed with 4% paraformaldehyde after 24 h; acceptor photobleaching, confocal microscope
[2] = biological target: CAMK1D (UniProt Q8IU85); experiment: co-IP; Pierce Co-IP Kit; LNCaP-ENZR and C4-2B-ENZR cell lysates; immunocomplexes analysed by western blot with Flag and CREB antibodies

By UniProt entry, the sequences of proteins in these tests, tags left out.
UniProt Q8IU85: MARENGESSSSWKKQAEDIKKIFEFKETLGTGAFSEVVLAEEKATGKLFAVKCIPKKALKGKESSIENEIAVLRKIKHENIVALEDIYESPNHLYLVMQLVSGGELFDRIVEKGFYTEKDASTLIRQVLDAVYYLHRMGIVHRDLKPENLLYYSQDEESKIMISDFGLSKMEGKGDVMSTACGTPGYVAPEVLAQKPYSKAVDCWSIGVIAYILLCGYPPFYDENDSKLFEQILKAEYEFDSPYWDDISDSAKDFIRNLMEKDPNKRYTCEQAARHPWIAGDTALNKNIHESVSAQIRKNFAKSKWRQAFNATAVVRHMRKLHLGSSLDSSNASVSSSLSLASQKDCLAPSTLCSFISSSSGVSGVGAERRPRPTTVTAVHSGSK
UniProt P16220: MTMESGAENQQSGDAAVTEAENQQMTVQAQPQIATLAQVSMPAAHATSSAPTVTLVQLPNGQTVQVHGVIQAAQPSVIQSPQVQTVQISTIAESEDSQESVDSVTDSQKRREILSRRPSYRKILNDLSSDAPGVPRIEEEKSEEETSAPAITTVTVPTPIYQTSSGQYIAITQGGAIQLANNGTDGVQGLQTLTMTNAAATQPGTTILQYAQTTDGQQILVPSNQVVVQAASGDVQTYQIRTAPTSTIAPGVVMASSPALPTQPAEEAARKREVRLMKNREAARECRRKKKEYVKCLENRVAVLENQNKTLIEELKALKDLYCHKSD

Substance	binding [1]	binding [2]
yellow fluorescent protein (YFP)-CREB (from UniProt P16220 1-327)	binds	–
CREB (from UniProt P16220 1-327)	–	binds

Source: PMC12775825
